Source: article PMC10527789
These are yes or no findings as the source states them, for the method shown. Binding seen in cells or lysates may run through a third protein. Some binding calls cover weakened binding; strength is not graded here.

Protein sequences, listed by entry. Tags and fused reporters are not part of them.
UniProt Q00987: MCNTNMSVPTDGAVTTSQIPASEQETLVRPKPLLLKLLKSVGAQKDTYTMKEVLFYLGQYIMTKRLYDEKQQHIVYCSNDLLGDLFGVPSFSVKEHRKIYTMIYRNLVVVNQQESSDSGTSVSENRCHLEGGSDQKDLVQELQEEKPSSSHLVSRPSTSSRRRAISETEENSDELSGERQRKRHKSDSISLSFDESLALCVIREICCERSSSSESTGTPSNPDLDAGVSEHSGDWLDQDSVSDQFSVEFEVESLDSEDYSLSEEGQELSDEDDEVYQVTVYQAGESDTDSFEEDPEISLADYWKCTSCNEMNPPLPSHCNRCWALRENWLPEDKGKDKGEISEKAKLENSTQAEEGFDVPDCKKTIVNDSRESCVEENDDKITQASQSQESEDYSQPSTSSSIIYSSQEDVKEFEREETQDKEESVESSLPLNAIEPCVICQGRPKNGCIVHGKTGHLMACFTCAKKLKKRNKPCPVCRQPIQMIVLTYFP
UniProt P23804: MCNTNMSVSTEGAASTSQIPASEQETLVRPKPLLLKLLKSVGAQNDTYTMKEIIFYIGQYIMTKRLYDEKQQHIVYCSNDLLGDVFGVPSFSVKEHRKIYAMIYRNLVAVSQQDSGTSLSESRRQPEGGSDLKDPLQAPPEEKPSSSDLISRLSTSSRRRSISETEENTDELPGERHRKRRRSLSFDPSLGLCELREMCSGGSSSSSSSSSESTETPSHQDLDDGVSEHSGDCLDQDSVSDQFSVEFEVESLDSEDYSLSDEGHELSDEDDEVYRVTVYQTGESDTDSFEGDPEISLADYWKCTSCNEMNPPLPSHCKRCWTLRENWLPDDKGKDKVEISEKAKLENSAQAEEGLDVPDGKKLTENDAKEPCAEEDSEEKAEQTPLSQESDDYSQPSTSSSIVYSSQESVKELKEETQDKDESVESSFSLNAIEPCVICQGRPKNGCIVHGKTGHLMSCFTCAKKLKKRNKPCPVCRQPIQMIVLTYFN

What was measured:
[1] = target: Caveolin-1 (human, endogenous in CCD-986Sk fibroblasts) (human (endogenous in CCD-986Sk)) (UniProt Q03135); experiment: co-IP; Lysates of human fibroblasts (CCD-986Sk) in NP buffer, precleared; 1 mg protein with 1 µg Cav-1 antibody overnight at 4 °C, protein A/G agarose; MDM2 and Sirt1 detected by Western blot; control cells, H2O2-induced senescent cells, and senescent cells after HIFU (LINEAR or DOT mode, 0.3, 0.5 or 0.7 J)
[2] = target: T1, Caveolin-1 (mouse, endogenous in skin) (mouse (endogenous in C57BL/6 skin)) (UniProt P49817); experiment: co-IP; Homogenates of mouse skin (100 mg) in NP buffer, precleared; 1 mg protein with 1 µg Cav-1 antibody overnight at 4 °C, protein A/G agarose; MDM2 and Sirt1 detected by Western blot; young mice, aging mice, and aging mice after HIFU (LINEAR or DOT mode, 0.3, 0.5 or 0.7 J)
T1 sequence: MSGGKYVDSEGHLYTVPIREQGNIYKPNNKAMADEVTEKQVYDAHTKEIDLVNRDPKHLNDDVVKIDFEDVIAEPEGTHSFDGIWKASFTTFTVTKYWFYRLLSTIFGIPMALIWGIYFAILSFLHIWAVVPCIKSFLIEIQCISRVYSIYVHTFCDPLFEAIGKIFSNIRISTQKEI

Row | binding [1] | binding [2] | Substance
1 | binds | – | Mouse double minute 2 homolog (human, endogenous in CCD-986Sk fibroblasts) (from UniProt Q00987 1-491)
2 | – | binds | Mouse double minute 2 homolog (mouse, endogenous in skin) (from UniProt P23804 1-489)
